According to US4435385A, “N-Acyl-polypeptides and processes for the production thereof” (Sandoz Ltd., priority 1981, dated 1984):
At least one peptide structure holds a part that was inferred or is arguable (an end, a ring closure or a residue).

Assays:
gastric secretion = assay: TEST II: pentagastrin-stimulated gastric secretion in pylorus-ligated rats; assay type: in vivo, rat; conditions: male rats, i.m., 100 μg/kg pentagastrin s.c., 30 mins; dose for 50% inhibition vs untreated controls
Method: Male rats (220-280 g) are kept in the laboratory in individual cages for several days (14 hours light/day) with 48 hours fasting (but free access to water) immediately prior to the experiment. At the start of the experiment the pylorus is ligated under ether anaesthesia and 100 μg/kg pentagastrin are injected s.c. to stimulate gastric secretion. The test compounds are injected simultaneously i.m. 30 mins. later the animals are sacrificed, the volume of gastric juice measured and the acid concentration estimated (titration with thymol blue). The acid output is calculated and the percent inhibition estimated in relation to untreated controls.

serum GH-level = assay: TEST I: depression of serum GH-levels in the rat (GH-secretion inhibition); assay type: in vivo; conditions: male rats, s.c., dose for 50% inhibition vs untreated controls

With `CCCCCCCCCC(=O)N[C@H](Cc1ccccc1)C(=O)N[C@H]1CSSC[C@@H](C(=O)N[C@H](CO)[C@@H](C)O)NC(=O)[C@H]([C@@H](C)O)NC(=O)[C@H](CCCCN)NC(=O)[C@@H](Cc2c[nH]c3ccccc23)NC(=O)[C@H](Cc2ccccc2)NC1=O` [Example 1] as the molecule, how does the “ID50 in TEST II for acid concentration” value (gastric secretion) read?
The value was 2.1 µg/kg.

What about the “ID50 in TEST II for gastric juice content” value (gastric secretion) of the same molecule?
The value was 4.5 μg/kg i.m.

What about the “ID50 in TEST I for activity at 60 minutes” value (serum GH-level; serum GH 60 minutes after administration) of the same molecule?
The value was 13.0 μg/kg s.c.

What about the “ID50 in TEST I for activity at 6 hours” value (serum GH-level; serum GH 6 hours after administration) of the same molecule?
The value was 16.0 μg/kg s.c.

What about the “ID50 in TEST I for activity at 18 hours” value (serum GH-level; serum GH 18 hours after administration) of the same molecule?
The value was 28 μg/kg s.c.
